This is an account of results in PubChem BioAssay AID268 (DTP/NCI, 2004).

The list does not hold the whole screen: it gathers tests that were run many times, whatever their T/C, doses with no T/C, and many T/C values between a quarter and a half above the control. Further doses and runs are listed elsewhere. T/C: endpoint of the treated group in % of that of the vehicle group. Schedule codes are those of the source, read here as Q, the interval in days (D) or hours (H), X, the number of doses. Some doses were run more than once; the results are listed from low to high. Some doses have a count of surviving animals in place of a T/C: the source holds a T/C of zero for them, seemingly a mark for toxic or unscored doses. Counts of survivors are from the toxicity check (mostly the fifth day) where no day follows; animals may have died later.

This assay relates to CD2F1 mice, P1798 lymphosarcoma sc, tumor weight T/C. In words: NCI In Vivo Anticancer Drug Screen. Data for tumor model P1798 Lymphosarcoma (subcutaneous) in CD2F1 (CDF1) mice. Conditions: T/C endpoint: mean tumor weight, higher T/C = larger tumour; for T/C: schedule: Q01DX010 (sc), vehicle: steroid suspending solution; for survivor count: schedule: Q01DX010 (ip), vehicle: saline. The method, then:
The antitumor activity of compounds was measured in mice bearing transplantable tumors. Survival or tumor size were measured and the results are expressed as the measurement made in the treated group (T) divided by the measurement made in the vehicle treated control group (C). The tumor model used in this assay is P1798 Lymphosarcoma (subcutaneous) in CD2F1 (CDF1) mice

On to `CC/C(=C(/CC)c1ccc(O)cc1)c1ccc(O)cc1`, for which the T/C reads like this: (dose: 12.5 mg/kg/injection, evaluated on day 12) 68, 86, 103 % of control; (dose: 12.5 mg/kg/injection, run until all animals had died) 89 % of control; (dose: 25.0 mg/kg/injection, evaluated on day 12) 57, 97, 136 % of control; (dose: 25.0 mg/kg/injection, run until all animals had died) 85 % of control; (dose: 50.0 mg/kg/injection, evaluated on day 12) 55, 63, 86 % of control; (dose: 50.0 mg/kg/injection, run until all animals had died) 104 % of control.

Regarding `C[C@]12CC[C@H](OC3OC(CO)C(O)C(O)C3O)C[C@H]1CC[C@@H]1[C@@H]2CC[C@]2(C)[C@@H](C3=CCOC3=O)CC[C@]12O` (stereo not given in full), the survivor count (dose: 1.0 mg/kg/injection) is 1 of 6 and 3 of 6; the survivor count (dose: 2.0 mg/kg/injection) is 0 of 6; the survivor count (dose: 4.0 mg/kg/injection) was 0 of 6.

As to `CCc1c(CC(=O)O)c2cc(C)ccc2n1Cc1ccc(Cl)cc1`, the survivor count (dose: 100.0 mg/kg/injection) is reported as 0 of 6.
